Common to all, as to assay: co-IP
The target in test [1] is T1, GOT1B-FLAG (GOLT1B-Flag), stably overexpressed in MCF10A cells (human) (UniProt Q9Y3E0).
T1 sequence: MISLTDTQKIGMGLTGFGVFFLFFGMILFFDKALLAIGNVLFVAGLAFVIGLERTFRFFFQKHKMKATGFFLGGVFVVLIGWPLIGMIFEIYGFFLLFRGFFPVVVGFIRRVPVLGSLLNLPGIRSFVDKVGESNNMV

Sequences of proteins named here, by UniProt entry; tags and fusion partners are left off.
UniProt Q969M3: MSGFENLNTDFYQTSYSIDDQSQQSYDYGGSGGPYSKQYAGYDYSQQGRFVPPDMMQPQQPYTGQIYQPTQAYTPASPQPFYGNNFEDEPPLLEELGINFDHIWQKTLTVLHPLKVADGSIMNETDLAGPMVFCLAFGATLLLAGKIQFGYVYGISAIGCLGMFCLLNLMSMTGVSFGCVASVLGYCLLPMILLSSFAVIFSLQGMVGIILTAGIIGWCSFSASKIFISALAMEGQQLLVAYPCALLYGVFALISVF

Test [2] has as its target T2, FLAG-GOT1A (Flag-GOLT1A), stably overexpressed in MCF10A cells (human) (UniProt Q6ZVE7).
T2 sequence: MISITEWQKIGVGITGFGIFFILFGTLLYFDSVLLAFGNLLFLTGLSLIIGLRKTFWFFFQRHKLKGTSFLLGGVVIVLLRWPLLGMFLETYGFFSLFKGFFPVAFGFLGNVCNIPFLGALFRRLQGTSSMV

Test [3] deals with T3, V5-GOT1A (V5-GOLT1A), transfected in HEK293T cells (human) (UniProt Q6ZVE7).
T3 sequence: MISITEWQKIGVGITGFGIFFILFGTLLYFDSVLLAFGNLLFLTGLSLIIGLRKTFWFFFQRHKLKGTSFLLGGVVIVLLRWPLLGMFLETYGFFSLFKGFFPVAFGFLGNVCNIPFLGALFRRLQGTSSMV

The target in test [4] is T4, GOT1B-FLAG (GOLT1B-Flag), stably expressed in HEK293T cells (human) (UniProt Q9Y3E0).
T4 sequence: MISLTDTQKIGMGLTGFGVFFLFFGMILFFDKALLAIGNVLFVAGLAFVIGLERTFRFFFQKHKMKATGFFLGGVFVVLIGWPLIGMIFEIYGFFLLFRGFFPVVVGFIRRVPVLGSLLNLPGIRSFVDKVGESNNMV

The target of test [5] is T3, V5-GOT1A (V5-GOLT1A), transfected in HEK293T cells (human). This is another data set of the same source.
In test [6] the target is T4, GOT1B-FLAG (GOLT1B-Flag), stably expressed in HEK293T cells (human). This is another data set of the same source.
Test [7] has as its target T1, GOT1B-FLAG (GOLT1B-Flag), stably overexpressed in MCF10A cells (human). The source holds these as a separate data set.
Test [8] has as its target T2, FLAG-GOT1A (Flag-GOLT1A), stably overexpressed in MCF10A cells (human). The source holds these as a separate data set.

Where two headings read alike, the source gives them in different places. Results are given in words; binding and its absence hold for the method and conditions named. Binding seen in cells or lysates may run through a third protein. Some results given as binding are weak or reduced against the parent protein; the word gives no strength. Sequences can lack the tags named with a protein.

In the case of “YIPF5, endogenous in MCF10A cells (from UniProt Q969M3 1-257)”, the binding result in test [1] and in test [2] was “binds” each time. As for “YIPF5, endogenous in HEK293T cells (from UniProt Q969M3 1-257)”, the binding result in test [3] and in test [4] was “binds” throughout.

B1: GOT1B-FLAG (GOLT1B-Flag), stably expressed in HEK293T cells (protein, UniProt Q9Y3E0 1-138)
chain: MISLTDTQKIGMGLTGFGVFFLFFGMILFFDKALLAIGNVLFVAGLAFVIGLERTFRFFFQKHKMKATGFFLGGVFVVLIGWPLIGMIFEIYGFFLLFRGFFPVVVGFIRRVPVLGSLLNLPGIRSFVDKVGESNNMV
B1: the binding result in test [5] is “binds”.

B2: V5-GOT1A (V5-GOLT1A), transfected in HEK293T cells (protein, UniProt Q6ZVE7 1-132)
chain: MISITEWQKIGVGITGFGIFFILFGTLLYFDSVLLAFGNLLFLTGLSLIIGLRKTFWFFFQRHKLKGTSFLLGGVVIVLLRWPLLGMFLETYGFFSLFKGFFPVAFGFLGNVCNIPFLGALFRRLQGTSSMV
Regarding B2, the binding result in test [5] and in test [6] was “binds” in each case.

B3: YIF1A, endogenous in MCF10A cells (protein, UniProt O95070 1-293)
chain: MAYHSGYGAHGSKHRARAAPDPPPLFDDTSGGYSSQPGGYPATGADVAFSVNHLLGDPMANVAMAYGSSIASHGKDMVHKELHRFVSVSKLKYFFAVDTAYVAKKLGLLVFPYTHQNWEVQYSRDAPLPPRQDLNAPDLYIPTMAFITYVLLAGMALGIQKRFSPEVLGLCASTALVWVVMEVLALLLGLYLATVRSDLSTFHLLAYSGYKYVGMILSVLTGLLFGSDGYYVALAWTSSALMYFIVRSLRTAALGPDSMGGPVPRQRLQLYLTLGAAAFQPLIIYWLTFHLVR
For B3, the binding entry in test [7] and in test [8] was “binds” throughout.

Values taken from doi:10.1101/2023.12.12.569033.
